Measurements taken from article doi:10.1101/2025.11.17.688911.

Target: taxol-stabilised microtubules polymerised from porcine brain tubulin (pig)
Assay: cryo-EM structure; 1.5 μM taxol-MTs on the grid, then 6 μM MAP9-MTBD, then 6 μM KIF1A (1–393) in 2 mM AMP-PNP; 3D focused classification on one tubulin dimer; both purified

B1: KIF1A motor domain, monomeric (mTurquoise2::Human KIF1A (1–393)::strepII) (domain or fragment, UniProt Q12756 1-393)
chain: MAGASVKVAVRVRPFNSREMSRDSKCIIQMSGSTTTIVNPKQPKETPKSFSFDYSYWSHTSPEDINYASQKQVYRDIGEEMLQHAFEGYNVCIFAYGQTGAGKSYTMMGKQEKDQQGIIPQLCEDLFSRINDTTNDNMSYSVEVSYMEIYCERVRDLLNPKNKGNLRVREHPLLGPYVEDLSKLAVTSYNDIQDLMDSGNKARTVAATNMNETSSRSHAVFNIIFTQKRHDAETNITTEKVSKISLVDLAGSERADSTGAKGTRLKEGANINKSLTTLGKVISALAEMDSGPNKNKKKKKTDFIPYRDSVLTWLLRENLGGNSRTAMVAALSPADINYDETLSTLRYADRAKQIRCNAVINEDPNNKLIRELKDEVTRLRDLLYAQGLGDITD
binding: binds

No constants are given. Whether binding was seen depends on the method and setting. A result given as binding can be weak or reduced; the word gives no strength.
